## Screening data, single-dose tests

From ChEMBL document CHEMBL3988442, “University of Dundee, Small-Polar-MMV Screening Library” (2021).

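Growth of Mycobacterium tuberculosis over 3 days (7H9 medium with glucose and tyloxapol); the read-out is not stated. Concentration: 500 µM. The record gives no direction; compounds that gave an IC50 in retests scored well above the rest, so higher reads as more growth inhibition. Size under these conditions: about 18,000 compounds, about 1,400 of them at 50% or above in at least one test.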

Results are given as percent effect. The controls that fix the scale are not given in the record; negative values are as filed. Compounds were drawn at random from those tested, without regard to their results.

SMILES,percent effect
c1cc(CNCCn2cccn2)c2c(c1)OCCO2,32.36%
CC(=O)c1ccc(S(C)(=O)=O)c(N(C)CCC2CC2)c1,-7.17%
COCCNC(=O)COc1ccc2c(c1)OCO2,53.75%
CC(C)n1ccc(C(=O)NCCS(=O)(=O)N(C)C)n1,13.99%
Cc1cc(C(=O)NCc2ccc(CO)cc2)cc(C)n1,13.51%
COc1cccc(SCC(=O)N2CCOC(C)C2)c1 (stereo not given),53.18%
CC(=O)NC(C(=O)N(C)Cc1ccc(F)cc1)C(C)C (stereo not given),-13.25%
CCOCCS(=O)(=O)N1CCN(C)c2ccncc21,45.98%
c1cn(CCNC2CCSCC2)cn1,20.27%
Cc1cccnc1C(=O)NC(c1nccn1C)C(C)C (stereo not given),8.46%
CC(C)CCNC(=O)CCCC(=O)Nc1ccccn1,-7.272%
CC(=O)NCc1ccc(S(=O)(=O)NC2CCCCC2)s1,33.03%
COc1c(F)cc(C(=O)NC2CCNC2)cc1F (stereo not given),-4.608%
O=C(Cc1cncs1)N1CCSc2ccncc21,-1.755%
O=S(=O)(c1ccco1)N1CCSC2(CCOCC2)C1,49.28%
N#CCC(=O)Nc1ccc(N2CCOCC2)cc1,-2.953%
CC(=O)c1ccnc(C)n1,2.617%
NC(=O)COc1ccc(CN2CCCC2)cc1Cl,25.05%
CC(NC(=O)Nc1ccc2c(c1)C(=O)NC2=O)C1CC1 (stereo not given),25.88%
NCc1nnc2ccc(Cl)nn12,-12.39%
N#Cc1ccc(F)c(CN2CCn3ccnc3C2)c1,6.918%
NCCOCC1CCCO1 (stereo not given),3.522%
Cc1ccc2c(c1)C(N)C(=O)N2C (stereo not given),7.29%
CCN(CC)S(=O)(=O)c1c(N)noc1C,6.794%
O=C(CCCc1cn[nH]c1)N1CCS(=O)(=O)CC1,2.853%
COC(=O)CN1CCCC(C(=O)c2ccc(F)cc2)C1 (stereo not given),36.63%
CNS(=O)(=O)c1ccc(C(=O)NC(C)COC)cc1 (stereo not given),-8.535%
CNC(=O)c1cnn(C2CCCCC2)c1,13.43%
CC1NCc2ccccc2NC1=O (stereo not given),1.582%
Nc1[nH]nc(C(=O)N2CCOC3(CCCC3)C2)c1Cl,4.64%
COc1ccccc1C(=O)N1CCN(C2CC2)C(=O)C1,-3.358%
CCn1c(C)nnc1SCC(=O)Nc1nccs1,-4.281%
CCO[C@H]1CN(C)C[C@@H]1NC(=O)c1cnn(C(C)C)c1,6.118%
CC(O)CNC1CCS(=O)(=O)CC1 (stereo not given),-1.338%
CC(O)CC(C)(C)CNS(=O)(=O)c1c[nH]cn1 (stereo not given),8.971%
CCOC(=O)CN1C(=O)c2ccc(Br)cc2C1=O,-4.452%
Cc1cc(C(=O)NCCCN(C)CC(F)(F)F)no1,39.58%
CN(CCc1ccncc1)CCN1CCCC1=O,10.31%
Nc1cncc(-c2ccc(CN3CCCCC3)cn2)c1,-1020%
Cc1ccc(C(=O)N2CCC(N3CCN(C)CC3)C2)s1 (stereo not given),6.744%
COc1ccc(C(=O)CCC(=O)N(C)C)c(Cl)c1,1.38%
Cc1ccccc1-c1nc(CNC(C)(CO)CO)no1,2.966%
CN1[C@H]2CC[C@@H]1CN(CC(=O)Nc1ccn(C)n1)CC2,-24.43%
O=C(Nc1nnc2n1CCCC2)c1ccncc1,-14.27%
Cc1noc(CCCC(=O)NC2CCCCNC2=O)n1 (stereo not given),-4.795%
CCC(C)(C)NCC(=O)Nc1cccc(C(=O)NC)c1,5.544%
COc1ccc(C(C)=O)cc1CN1CCCCC1,-3.785%
Cc1ccncc1N1CCNCC1,9.743%
O=C(CNc1cccc(CO)c1)NCc1ccc(Cl)s1,67.63%
NC(=O)COc1cccc(CN2CCC(F)CC2)c1,50.09%
CCCNC(=O)c1ccc(CN2CCOCC2)cc1,29.37%
Cc1cscc1NC(=O)NCCC1(C)OCCO1,-3.637%
Cc1cc(NC(C)CO)nc2ccccc12 (stereo not given),-10.59%
CCC1CN(C)c2ccccc2CN1CCOCCO (stereo not given),-0.3702%
CC(CO)CNC(=O)CCNC(=O)NC1CCCCC1 (stereo not given),-14.86%
Cc1ncccc1C(=O)Nc1cnns1,-0.1046%
NCC(=O)Nc1cc(C(F)(F)F)c[nH]c1=O,-5.83%
Cc1cccc(NCC2CCS(=O)(=O)CC2)n1,-0.1266%
CCNC(=O)NCCCOCC1CCOC1 (stereo not given),0.8369%
CS(=O)(=O)CCC(=O)NCCNC(=O)c1ccccc1,7.264%
COCCNS(=O)(=O)c1ccc2[nH]c(=O)sc2c1,7.276%
CN(Cc1ccc(S(C)(=O)=O)cc1)Cc1nccn1C,6.355%
NC(=O)Cc1cccc(O)c1,12.74%
CCOc1ncccc1C(=O)N1CCCN(C)CC1,-3.433%
CC1CCCN(C(=O)c2ccc3nnnn3c2)C1 (stereo not given),3.153%
CCN(CC)C(C)CNc1ccc2nnnn2n1 (stereo not given),-17.49%
CCCC(=O)Nc1cc(C(=O)OC)cc(C(=O)OC)c1,60.29%
O=C(NCCNCc1ccsc1)c1ccn[nH]1,3.037%
O=C1CC(c2ccccc2)NCCN1 (stereo not given),-1.871%
O=C(c1cnc[nH]1)N1C[C@H](O)[C@@H](N2CCCCC2)C1,3.002%
NC1CCN(c2ccccc2F)C1 (stereo not given),9.58%
CCCN(C1CCNCC1)S(=O)(=O)CC1CCCCO1 (stereo not given),12.85%
CC(=O)c1cnnn1-c1ccccc1,15.35%
CCOC(C)C(=O)NCCc1cncn1C (stereo not given),6.608%
NCCCc1nc(-c2ccc(F)cc2)no1,71.09%
CC(C)n1cnnc1C1CCNCC1,-5.808%
O=C(NCC1(O)CCNC1)Nc1ccc(F)c(F)c1 (stereo not given),19.18%
O=C(CSc1cnn[nH]1)Nc1ccc(Cl)cn1,64.78%
NC(=O)C1(NCc2ccc(Br)c3cccnc23)CC1,-4.684%
COCCNC(=O)CN(C)Cc1ccccc1,25.67%
CNC(=O)c1nn(C)cc1NC(=O)c1cc(C)c(C)s1,0.2837%
NCc1cccc(OCc2ccccn2)c1,52.85%